System: mouse model of middle cerebral artery (MCA) occlusion
Assay: Relative cerebral blood flow by laser-Doppler flowmetry during MCAO
Type: in vivo
Conditions: after insertion of monofilament, vehicle 18.0±3.3

## CCCCC[C@@H](/C=C/[C@H]1[C@H](OC)CC(=O)[C@@H]1C/C=C\CCCC(=O)O)OC [ONO-AE-248]
0.5 nmol ICV
  Percent of baseline CBF: 18.0±3.7% of baseline
2.5 nmol ICV
  Percent of baseline CBF: 17.5±2.0% of baseline
5.0 nmol ICV
  Percent of baseline CBF: 17.0±2.7% of baseline
